Read-outs that look alike come from different tables or passages of the source. Some entries share one result that the patent states for a list of compounds.
Target: B-Raf (V599E or Wild Type) (Homo sapiens, UniProt P15056)
Test: B-Raf Flash Plate assay
Format: biochemical
Conditions: Peptide 118, 0.5 μM ATP, 60 minutes
[1] = read-out: IC50, inhibition of the enzyme in B-Raf Flash Plate assay
[2] = read-out: IC50 in B-Raf Flash Plate assay

Amino acid sequences for entries named in this document (tags omitted).
UniProt P15056, whole entry, stated change not applied: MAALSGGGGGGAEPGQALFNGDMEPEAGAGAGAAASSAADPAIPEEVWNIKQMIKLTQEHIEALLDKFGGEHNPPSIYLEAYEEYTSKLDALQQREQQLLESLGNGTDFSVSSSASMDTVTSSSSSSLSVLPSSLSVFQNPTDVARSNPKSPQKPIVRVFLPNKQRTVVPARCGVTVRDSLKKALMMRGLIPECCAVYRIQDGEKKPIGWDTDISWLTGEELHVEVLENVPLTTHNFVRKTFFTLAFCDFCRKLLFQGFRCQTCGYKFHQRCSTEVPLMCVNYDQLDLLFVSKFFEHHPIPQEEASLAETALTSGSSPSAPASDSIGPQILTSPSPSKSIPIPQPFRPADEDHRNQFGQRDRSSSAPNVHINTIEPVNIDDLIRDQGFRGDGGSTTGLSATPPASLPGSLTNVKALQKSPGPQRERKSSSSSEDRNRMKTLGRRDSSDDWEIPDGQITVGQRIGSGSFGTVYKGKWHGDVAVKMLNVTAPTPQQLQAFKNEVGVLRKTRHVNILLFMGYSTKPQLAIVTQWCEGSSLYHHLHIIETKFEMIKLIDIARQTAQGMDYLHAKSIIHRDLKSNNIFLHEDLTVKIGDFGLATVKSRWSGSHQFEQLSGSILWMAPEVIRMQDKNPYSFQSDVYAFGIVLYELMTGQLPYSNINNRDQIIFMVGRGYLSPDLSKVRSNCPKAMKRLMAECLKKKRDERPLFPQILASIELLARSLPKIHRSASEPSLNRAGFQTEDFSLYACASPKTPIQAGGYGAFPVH

Row | SMILES | IC50 [1] [µM] | IC50 [2] [µM]
1 | O=C(Nc1ccc(Cl)c(C(F)(F)F)c1)C1CCc2ccc(Oc3ccnc(C4=NCCN4)c3)cc2C1 (stereo not drawn) [Compound I-36, N-[4-chloro-3-(trifluoromethyl)phenyl]-7-{[2-(4,5-dihydro-1H-imidazol-2-yl)pyridin-4-yl]oxy}-1,2,3,4-tetrahydronaphthalene-2-carboxamide] | ≤ 1 | 
2 | O=C(Nc1cc(CN2CC[C@@H](F)C2)cc(C(F)(F)F)c1)C1CCc2ccc(Oc3ccnc(NC(=O)C4CC4)c3)cc2C1 (stereo partly drawn) [Compound I-337, 7-({2-[(cyclopropylcarbonyl)amino]pyridin-4-yl}oxy)-N-[3-{[(3R)-3-fluoropyrrolidin-1-yl]methyl}-5-(trifluoromethyl)phenyl]-1,2,3,4-tetrahydronaphthalene-2-carboxamide] | ≤ 1 | < 0.05
3 | CC(C)(C)c1cccc(NC(=O)C2CCc3ccc(Oc4ccnc(N)c4)cc3C2)c1 (stereo not drawn) [Compound I-235, 7-[(2-aminopyridin-4-yl)oxy]-N-(3-tert-butylphenyl)-1,2,3,4-tetrahydronaphthalene-2-carboxamide] | ≤ 1 | < 0.05
4 | CCOC(=O)c1nnc(-c2cc(Oc3ccc4c(c3)CC(C(=O)Nc3cccc(C(C)(C)C)c3)CC4)ccn2)o1 (stereo not drawn) [Compound I-310, ethyl 5-{4-[(7-{[(3-tert-butylphenyl)amino]carbonyl}-5,6,7,8-tetrahydronaphthalen-2-yl)oxy]pyridin-2-yl}-1,3,4-oxadiazole-2-carboxylate] | ≤ 1 | < 0.05
5 | CC(C)(C)c1cccc(NC(=O)c2ccc3ccc(Oc4ccnc(C5=NCCN5)c4)cc3c2)c1 [Compound I-7, N-(3-tert-butylphenyl)-7-{[2-(4,5-dihydro-1H-imidazol-2-yl)pyridin-4-yl]oxy}-2-naphthamide] | ≤ 1 | < 0.05
6 | CC(=O)Nc1cc(Oc2ccc3c(c2)CC(C(=O)Nc2cc(CN)cc(C(C)(C)C)c2)CC3)ccn1 (stereo not drawn) [Compound I-385, 7-{[2-(acetylamino)pyridin-4-yl]oxy}-N-[3-(aminomethyl)-5-tert-butylphenyl]-1,2,3,4-tetrahydronaphthalene-2-carboxamide] | ≤ 1 | < 0.05
7 | NCc1cc(NC(=O)[C@@H]2CCc3ccc(Oc4ccnc(NC(=O)C5CC5)c4)cc3C2)cc(C(F)(F)F)c1 [Compound I-270, (2R)-N-[3-(aminomethyl)-5-(trifluoromethyl)phenyl]-7-({2-[(cyclopropylcarbonyl)amino]pyridin-4-yl}oxy)-1,2,3,4-tetrahydronaphthalene-2-carboxamide] | ≤ 1 | < 0.05
8 | CC(=O)Nc1cc(Oc2ccc3c(c2)CC(C(=O)Nc2ccc(Cl)c(C)c2)CC3)ccn1 (stereo not drawn) [Compound I-211, 7-{[2-(acetylamino)pyridin-4-yl]oxy}-N-(4-chloro-3-methylphenyl)-1,2,3,4-tetrahydronaphthalene-2-carboxamide] | ≤ 1 | < 0.05
9 | N#Cc1ccc(NC(=O)c2ccc3ccc(Oc4ccnc(N)c4)cc3c2)cc1C(F)(F)F [Compound I-158, 7-[(2-aminopyridin-4-yl)oxy]-N-[4-cyano-3-(trifluoromethyl)phenyl]-2-naphthamide] | ≤ 1 | < 0.05
10 | O=C(NC1CCc2ccc(Oc3ccnc(C4=NCCN4)c3)cc2C1)c1ccc(Cl)c(C(F)(F)F)c1 (stereo not drawn) [Compound I-442, 4-chloro-N-(7-{[2-(4,5-dihydro-1H-imidazol-2-yl)pyridin-4-yl]oxy}-1,2,3,4-tetrahydronaphthalen-2-yl)-3-(trifluoromethyl)benzamide] | ≤ 1 | < 0.05
11 | CN(C)CCNCC(=O)Nc1cc(Oc2ccc3ccc(C(=O)Nc4cccc(C(C)(C)C)c4)cc3c2)ccn1 [Compound I-190, N-(3-tert-butylphenyl)-7-({2-[({[2-(dimethylamino)ethyl]amino}acetyl)amino]pyridin-4-yl}oxy)-2-naphthamide] | ≤ 1 | < 0.05
12 | O=C(Nc1ccc(Cl)c(C(F)(F)F)c1)c1ccc2ccc(Oc3ccnc(C4=NCCN4)c3)cc2n1 [Compound I-45, N-[4-chloro-3-(trifluoromethyl)phenyl]-7-{[2-(4,5-dihydro-1H-imidazol-2-yl)pyridin-4-yl]oxy}quinoline-2-carboxamide] | ≤ 1 | 
13 | CC(C)(C)c1cccc(C(=O)NC2CCc3ccc(Oc4ccnc(NC(=O)C5CC5)c4)cc3C2)c1 (stereo not drawn) [Compound I-435, 3-tert-butyl-N-[7-({2-[(cyclopropylcarbonyl)amino]pyridin-4-yl}oxy)-1,2,3,4-tetrahydronaphthalen-2-yl]benzamide] | ≤ 1 | < 0.05
14 | CN1CCN(C(=O)Nc2cc(Oc3ccc4ccc(C(=O)Nc5cccc(C(C)(C)C)c5)cc4c3)ccn2)CC1 [Compound I-141, N-{4-[(7-{[(3-tert-butylphenyl)amino]carbonyl}-2-naphthyl)oxy]pyridin-2-yl}-4-methylpiperazine-1-carboxamide] | ≤ 1 | 
15 | CN1CCN(C(=O)c2c[nH]c(-c3cc(Oc4ccc5c(c4)CC(C(=O)Nc4cc(CN)cc(C(F)(F)F)c4)CC5)ccn3)n2)CC1 (stereo not drawn) [Compound I-251, N-[3-(aminomethyl)-5-(trifluoromethyl)phenyl]-7-[(2-{4-[(4-methylpiperazin-1-yl)carbonyl]-1H-imidazol-2-yl}pyridin-4-yl)oxy]-1,2,3,4-tetrahydronaphthalene-2-carboxamide] | ≤ 1 | < 0.05
16 | NCc1ccc(NC(=O)c2cnc3ccc(Oc4ccnc(C5=NCCN5)c4)cc3c2)cc1C(F)(F)F [Compound I-396, N-[4-(aminomethyl)-3-(trifluoromethyl)phenyl]-6-{[2-(4,5-dihydro-1H-imidazol-2-yl)pyridin-4-yl]oxy}quinoline-3-carboxamide] | ≤ 1 | < 0.05
17 | CNC(=O)c1cc(Oc2ccc3c(c2)CC(C(=O)Nc2cc(C(C)(C)C)no2)CC3)ccn1 (stereo not drawn) [Compound I-26, 4-[(7-{[(3-tert-butylisoxazol-5-yl)amino]carbonyl}-5,6,7,8-tetrahydronaphthalen-2-yl)oxy]-N-methylpyridine-2-carboxamide] | ≤ 1 | 
18 | Cn1cc(-c2cc(Oc3ccc4c(c3)CC(C(=O)Nc3cc(CN5CCCC5)cc(C(F)(F)F)c3)CC4)ccn2)cn1 (stereo not drawn) [Compound I-344, 7-{[2-(1-methyl-1H-pyrazol-4-yl)pyridin-4-yl]oxy}-N-[3-(pyrrolidin-1-ylmethyl)-5-(trifluoromethyl)phenyl]-1,2,3,4-tetrahydronaphthalene-2-carboxamide] | ≤ 1 | < 0.05
19 | CC(=O)N(C)c1cc(Oc2ccc3c(c2)CC(C(=O)Nc2cccc(C(C)(C)C)c2)CC3)ccn1 (stereo not drawn) [Compound I-395, 7-({2-[acetyl(methyl)amino]pyridin-4-yl}oxy)-N-(3-tert-butylphenyl)-1,2,3,4-tetrahydronaphthalene-2-carboxamide] | ≤ 1 | < 0.05
20 | CNC(=O)c1cc(Oc2ccc3ccc(C(=O)Nc4cc(N)cc(C(F)(F)F)c4)cc3c2)ccn1 [Compound I-55, 4-{[7-({[3-amino-5-(trifluoromethyl)phenyl]amino}carbonyl)-2-naphthyl]oxy}-N-methylpyridine-2-carboxamide] | ≤ 1 | < 0.05
21 | CC(C)(C)c1cccc(NC(=O)C2CCc3ccc(Oc4ccnc(NC(=O)CN5CCCC5)c4)cc3C2)c1 (stereo not drawn) [Compound I-273, N-(3-tert-butylphenyl)-7-({2-[(pyrrolidin-1-ylacetyl)amino]pyridin-4-yl}oxy)-1,2,3,4-tetrahydronaphthalene-2-carboxamide] | ≤ 1 | < 0.05
22 | CNC(=O)c1cc(Oc2ccc3c(c2)CC(C(=O)Nc2cc(CNCCO)cc(C(F)(F)F)c2)CC3)ccn1 (stereo not drawn) [Compound I-276, 4-{[7-({[3-{[(2-hydroxyethyl)amino]methyl}-5-(trifluoromethyl)phenyl]amino}carbonyl)-5,6,7,8-tetrahydronaphthalen-2-yl]oxy}-N-methylpyridine-2-carboxamide] | ≤ 1 | < 0.05
23 | O=C(Nc1cc(OCCN2CCCC2)cc(C(F)(F)F)c1)c1ccc2ccc(Oc3ccnc(-c4nc(CN5CCCC5)c[nH]4)c3)cc2c1 [Compound I-369, N-[3-(2-pyrrolidin-1-ylethoxy)-5-(trifluoromethyl)phenyl]-7-({2-[4-(pyrrolidin-1-ylmethyl)-1H-imidazol-2-yl]pyridin-4-yl}oxy)-2-naphthamide] | ≤ 1 | < 0.05
24 | NCc1cc(NC(=O)C2CCc3ccc(Oc4ccnc(-n5ccnc5)c4)cc3C2)cc(C(F)(F)F)c1 (stereo not drawn) [Compound I-205, N-[3-(aminomethyl)-5-(trifluoromethyl)phenyl]-7-{[2-(1H-imidazol-1-yl)pyridin-4-yl]oxy}-1,2,3,4-tetrahydronaphthalene-2-carboxamide] | ≤ 1 | 
25 | CN1CCN(Cc2c[nH]c(-c3cc(Oc4ccc5c(c4)CC(C(=O)Nc4cc(CN)cc(C(F)(F)F)c4)CC5)ccn3)n2)CC1 (stereo not drawn) [Compound I-348, N-[3-(aminomethyl)-5-(trifluoromethyl)phenyl]-7-[(2-{4-[(4-methylpiperazin-1-yl)methyl]-1H-imidazol-2-yl}pyridin-4-yl)oxy]-1,2,3,4-tetrahydronaphthalene-2-carboxamide] | ≤ 1 | < 0.05
26 | NCc1cc(NC(=O)C2CCc3ccc(Oc4ccnc(-c5ccncc5)c4)cc3C2)cc(C(F)(F)F)c1 (stereo not drawn) [Compound I-183, N-[3-(aminomethyl)-5-(trifluoromethyl)phenyl]-7-(2,4′-bipyridin-4-yloxy)-1,2,3,4-tetrahydronaphthalene-2-carboxamide] | ≤ 1 | < 0.05
27 | CNC(=O)c1cc(Oc2ccc3c(c2)CC(NC(=O)c2cccc(C(C)(C)C)c2)CC3)ccn1 (stereo not drawn) [Compound I-460, 4-({7-[(3-tert-butylbenzoyl)amino]-5,6,7,8-tetrahydronaphthalen-2-yl}oxy)-N-methylpyridine-2-carboxamide] | ≤ 1 | < 0.05
28 | CC(=O)Nc1cc(Oc2ccc3c(c2)CC(C(=O)Nc2cccc(C(F)(F)F)c2)CC3)ccn1 (stereo not drawn) [Compound I-217, 7-{[2-(acetylamino)pyridin-4-yl]oxy}-N-[3-(trifluoromethyl)phenyl]-1,2,3,4-tetrahydronaphthalene-2-carboxamide] | ≤ 1 | < 0.05

Reference: patent US8110687B2, “Bicyclic compounds with kinase inhibitory activity” (Millennium Pharmaceuticals, Inc., priority 2005, dated 2012)
